Where a protein sequence is shown, tags need not be part of it.
Target: T1, Dpb11-m1,2,3,5-ΔC K463E,K469E,R538E,K549E (Saccharomyces cerevisiae (budding yeast)) (UniProt P47027)
T1 sequence (looked up, limits assumed): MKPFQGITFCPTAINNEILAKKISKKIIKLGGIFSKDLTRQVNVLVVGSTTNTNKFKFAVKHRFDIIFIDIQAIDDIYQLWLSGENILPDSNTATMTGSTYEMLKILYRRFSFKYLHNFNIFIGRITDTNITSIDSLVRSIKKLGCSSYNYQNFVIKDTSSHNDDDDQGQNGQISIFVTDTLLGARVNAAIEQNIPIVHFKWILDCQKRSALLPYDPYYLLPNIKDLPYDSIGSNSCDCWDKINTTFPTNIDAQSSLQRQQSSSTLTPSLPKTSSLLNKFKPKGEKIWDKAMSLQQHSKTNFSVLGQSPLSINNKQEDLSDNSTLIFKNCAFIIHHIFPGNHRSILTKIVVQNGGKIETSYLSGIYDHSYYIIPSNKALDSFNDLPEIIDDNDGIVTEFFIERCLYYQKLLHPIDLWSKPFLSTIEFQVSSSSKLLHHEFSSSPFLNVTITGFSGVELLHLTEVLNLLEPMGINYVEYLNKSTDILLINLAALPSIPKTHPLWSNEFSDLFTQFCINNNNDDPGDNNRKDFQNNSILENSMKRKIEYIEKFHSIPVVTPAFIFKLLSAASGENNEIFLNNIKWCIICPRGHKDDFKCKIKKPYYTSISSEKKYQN
Experiment: EMSA
Conditions: no shift up to 320 nM, EMSA: 1 nM 32P-DNA, 20 mM Tris-HCl pH 7.5, 0.1 mM EDTA, 0.2 mM DTT, 10% glycerol, 5 min at 30 C, 0.7% native agarose in 0.5x TBE, recombinant protein, label: 32P

Sequence	half-maximal binding (folded or branched DNA) [nM]	also measured
ATGTCCTAGCAAGCCAGAATTCGGCAGCGTCTTTTTTTTTTTTTTTTTTTTTTTTTTTTTTTTTTTTTTTTTTTTTTTTTTTTTTTTTTTTTTTTTTTTTTTTTTTTTTTTCCACGTCGGCGTCGCCACGAGC / GCTCGTGGCGACGCCGACGTGGTTTTTTTTTTTTTTTTTTTTTTTTTTTTTTTTTTTTTTTTTTTTTTTTTTTTTTTTTTTTTTTTTTTTTTTTTTTTTTTTGACGCTGCCGAATTCTGGCTTGCTAGGACAT [bubble DNA]	> 320	
TTTTTTTTTTTTTTTTTTTTTTTTTTTTTTTTTTTTTTTTTTTTTTTTTTTTTTTTTTTTTTTTTTTTTTTTTTTTTTTT [ssDNA (dT80)]		half-maximal binding (single-stranded DNA): > 320 nM
ATGTCCTAGCAAGCCAGAATTCGGCAGCGTCTTTTTTTTTTTTTTTTTTTTTTTTTTTTTTTTTTTTTTTTTTTTTTTTTTTTTTTTTTTTTTTTTTTTTTTTTTTTTTTT / TTTTTTTTTTTTTTTTTTTTTTTTTTTTTTTTTTTTTTTTTTTTTTTTTTTTTTTTTTTTTTTTTTTTTTTTTTTTTTTTGACGCTGCCGAATTCTGGCTTGCTAGGACAT [fork DNA]	> 320	
ATGTCCTAGCAAGCCAGAATTCGGCAGCGTC (double strand) [blunt dsDNA]		half-maximal binding: > 320 nM

— publication PMC5415106
